Assay results: patent publication US6342201B1 (Institut for Diagnostikforschung GmbH an der Freien …, priority 1994, dated 2002)

Assay: general procedure: Fmoc solid-phase peptide synthesis
Conditions: conjugation step, theoretical

Substance | conjugation yield [% Th.]
HOOC—CH2—S—CH2—CONH-Cys-(D-Trp)-Leu-Asp-Ile-Ile-Trp | 36.4
HOOC—CH2—S—CH2—CONH-Cys-His-Leu-Asp-Ile-Ile-Trp | 26.1
HOOC—CH2—S—CH2—CONH-Cys-Phe-(D-Trp)-Leu-Asp-Ile-Ile-Trp | 39.5
HS—CH2—CONH-Gly-Gly-Asp-(D-Trp)-Leu-Asp-Ile-Ile-Trp | 40.3
HS—CH2—CONH-Gly-Gly-Asp-Phe-(D-Trp)-Leu-Asp-Ile-Ile-Trp | 43.4
